Measurements reported in PubChem BioAssay AID652272 (Drosophila RNAi Screening Center, 2013)
Test: 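Genes whose knock-down decreases or increases Hedgehog reporter output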 (primary screen). Cells: Drosophila clone 8 (Cl8) cells. Reagent: long dsRNA against Drosophila genes. Detection: 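Plate reader light from a firefly reporter under a ptc promoter fragment that responds to Hedgehog, with Renilla light as transfection reference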. Direction: firefly Hh reporter signal: higher = more ptc reporter light; Renilla reference signal: higher = more Renilla control light. Call rule: 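Called a hit if the two-replicate mean z-score lies below -2 or above +3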. Meaning of the calls: active = hit: reporter lowered or raised; inactive = not a hit.
In all, the deposit lists about 21,000 reagents; shown is a random part of those that have a named target and a result. Over the whole deposit, 503 (2.4%) got an active call. 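Raw plate light values, not normalised; calls rest on replicate z-scores that were not deposited; hits include reporter decreases as well as increases.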 The numbers tell different reagents against one gene apart. No sequences are given here. Not stated in the record: the amount of reagent, the time to read-out.

| gene | dsRNA no. | firefly Hh reporter signal, replicate 1 | firefly Hh reporter signal, replicate 2 | firefly Hh reporter signal, replicate 3 | Renilla reference signal, replicate 1 | Renilla reference signal, replicate 2 | outcome |
| --- | --- | --- | --- | --- | --- | --- | --- |
| CG7432 | 1 | 6.31e5 | 1.42e5 | – | 30042 | 3837 | inactive |
| ppk29 | 1 | 81680 | 72629 | – | 1696 | 6284 | inactive |
| Obp44a | 1 | 1.09e5 | 51739 | – | 2777 | 4457 | inactive |
| Cp19 | 1 | 47145 | 50944 | – | 5409 | 3123 | inactive |
| CG10418 | 1 | 52592 | 44903 | 53011 | 4824 | 3459 | inactive |
| CG11374 | 1 | 1.22e5 | 97287 | – | 2746 | 2581 | inactive |
| a | 1 | 31664 | 20551 | – | 1088 | 2400 | inactive |
| a | 2 | 75536 | 57895 | – | 1709 | 4949 | inactive |
| t-Grip91 | 1 | 1.08e5 | 2.13e5 | – | 3013 | 10410 | inactive |
| CG3309 | 1 | 55313 | 1.62e5 | – | 1443 | 7268 | inactive |
| DIP-alpha | 1 | 6.47e5 | 98996 | – | 3913 | 3913 | inactive |
| DIP-alpha | 2 | 51872 | 40099 | – | 683 | 1753 | inactive |
| CG33099 | 1 | 1.03e5 | 1.25e5 | – | 4106 | 4962 | inactive |
| Xbp1 | 1 | 7.15e5 | 1.46e5 | – | 6587 | 6587 | inactive |
| CG32625 | 1 | 6.98e5 | 1.66e5 | – | 39216 | 3613 | inactive |
| eag | 1 | 5.59e5 | 1.88e5 | – | 35445 | 4209 | inactive |
| eag | 2 | 65866 | 1.35e5 | – | 1782 | 6244 | inactive |
| CG6569 | 1 | 7.67e5 | 1.55e5 | – | 33680 | 1978 | inactive |
| CG43138 | 1 | 3.25e5 | 1.46e5 | – | 12977 | 2304 | inactive |
| CG11882 | 1 | 84309 | 1.15e5 | – | 2090 | 2683 | inactive |
| Pgant5 | 1 | 82429 | 44504 | – | 3531 | 2231 | inactive |
| pgc | 1 | 1.56e5 | 62385 | – | 3552 | 3250 | inactive |
| CG11041 | 1 | 1.05e5 | 79337 | – | 2823 | 5188 | inactive |
| ppk3 | 1 | 1.10e5 | 68754 | – | 2371 | 5767 | inactive |
| Cyp313a2 | 1 | 62880 | 1.09e5 | – | 2113 | 3082 | inactive |
| FER | 1 | 3.66e5 | – | – | 8136 | – | inactive |
| FER | 2 | 68689 | 1.13e5 | – | 2307 | 3060 | inactive |
| AstC | 1 | 1.55e5 | 69633 | – | 3714 | 6378 | inactive |
| MAPk-Ak2 | 1 | 79523 | 1.39e5 | – | 3017 | 5302 | inactive |
| d4 | 1 | 1.68e5 | 1.44e5 | – | 6246 | 5858 | inactive |
| simj | 1 | 61690 | 1.03e5 | – | 2897 | 3472 | inactive |
| Echs1 | 1 | 79277 | 70241 | – | 1568 | 5721 | inactive |
| CG3909 | 1 | 75184 | 1.30e5 | – | 2180 | 3028 | inactive |
| CG15767 | 1 | 75101 | 1.73e5 | – | 3044 | 6813 | inactive |
| Taf3 | 1 | 82266 | 69077 | – | 2186 | 2306 | inactive |
| Uggt | 1 | 86092 | 58048 | – | 2873 | 2440 | inactive |
| CG13511 | 1 | 95453 | 65009 | – | 2656 | 5872 | inactive |
| ppk | 1 | 1.04e5 | 47843 | – | 2900 | 4784 | inactive |
| Caper | 1 | 78466 | 89270 | – | 3618 | 4035 | inactive |
| shop | 1 | 1.56e5 | 1.21e5 | – | 3554 | 3088 | inactive |
| gdrd | 1 | 1.15e5 | – | – | 3424 | 2896 | inactive |
| Vps52 | 1 | 69592 | 50517 | – | 1232 | 4514 | inactive |
| Hayan | 1 | 1.62e5 | 1.04e5 | – | 3718 | 2437 | inactive |
| GlyRS | 1 | 77824 | 67994 | – | 3008 | 3117 | inactive |
| dbe | 1 | 78377 | 74716 | – | 4529 | 3738 | inactive |
| shrb | 1 | 54896 | 29344 | – | 2405 | 1456 | inactive |
| CG12567 | 1 | 1.09e5 | 3.35e5 | – | 3520 | 15332 | inactive |
| Gr28a | 1 | 1.18e5 | 61072 | – | 2950 | 5680 | inactive |
| Ndfip | 1 | 1.19e5 | 67437 | – | 4421 | 2838 | inactive |
| Galt | 1 | 75083 | 73529 | – | 3623 | 1767 | inactive |
| CG11192 | 1 | 71024 | 41532 | – | 1268 | 2010 | inactive |
| Cht10 | 1 | 91730 | 41364 | – | 2480 | 3789 | inactive |
| Cht10 | 2 | 64474 | 62870 | – | 2833 | 2301 | inactive |
| Cht10 | 3 | 83012 | 46018 | – | 2299 | 4392 | inactive |
| Rfx | 1 | 50967 | 87460 | – | 2092 | 2423 | inactive |
| CG13404 | 1 | 57940 | 1.53e5 | – | 1603 | 6540 | inactive |
| CG6481 | 1 | 64481 | 1.43e5 | – | 2076 | 6224 | inactive |
